Laboratory results taken from the supplement of paper PMC10849652.
The other results are listed elsewhere or left out.

Amino acid sequences for entries named in this document (tags omitted). A change or cut given only in a name is not applied to a line headed by its entry.
UniProt P49591: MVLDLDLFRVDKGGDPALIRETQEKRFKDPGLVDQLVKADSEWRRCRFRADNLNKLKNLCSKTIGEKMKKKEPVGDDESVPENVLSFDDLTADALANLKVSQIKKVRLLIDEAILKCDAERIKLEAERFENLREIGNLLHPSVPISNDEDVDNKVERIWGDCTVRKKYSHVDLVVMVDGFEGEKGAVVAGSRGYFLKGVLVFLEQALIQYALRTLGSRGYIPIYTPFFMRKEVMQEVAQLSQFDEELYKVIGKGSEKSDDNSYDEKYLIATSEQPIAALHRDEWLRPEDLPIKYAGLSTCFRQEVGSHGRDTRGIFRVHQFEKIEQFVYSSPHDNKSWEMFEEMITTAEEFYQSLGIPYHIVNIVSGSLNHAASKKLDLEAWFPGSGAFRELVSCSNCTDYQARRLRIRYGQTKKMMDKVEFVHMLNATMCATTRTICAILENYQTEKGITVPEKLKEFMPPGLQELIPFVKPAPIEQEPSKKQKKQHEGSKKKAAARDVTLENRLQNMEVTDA

Key:
Assay in all cases: log2 fold change, soluble protein after heating vs DMSO (PISA); higher = thermal stabilisation; K562 cells, 10 uM, 30 min; active = over 0.2 and 3.5 SD of the protein, either way, in both replicates (recomputed)
defactinib = compound: CNC(=O)c1ccc(Nc2ncc(C(F)(F)F)c(NCc3nccnc3N(C)S(C)(=O)=O)n2)cc1 [defactinib]
Method in brief: (§1)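 Thermal stability values are relative to control samples and come from duplicates. They are expressed as log2 fold changes. For measurement, K562 cells (2×10^6 cells/mL) received 10 μM compound for 30 min, and aliquots were heated for 3 min over 48°C-58°C, pooled, and extracted at 4°C in PBS with 0.5% NP-40. Soluble protein, the supernatant after 21,000xg for 90 min, was quantified by TMTpro 16plex LC-MS/MS with equalised channel sums.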

rucaparib = compound: CNCc1ccc(-c2[nH]c3cc(F)cc4c3c2CCNC4=O)cc1 [rucaparib]
Method in brief: as §1

[1] = compound: CNc1nc(-c2ccc3c(N)n[nH]c3c2)cc(N2C[C@@H](C(=O)NC3CCCCC3)CC[C@H]2C)n1
Method in brief: as §1

encorafenib = compound: COC(=O)N[C@@H](C)CNc1nccc(-c2cn(C(C)C)nc2-c2cc(Cl)cc(NS(C)(=O)=O)c2F)n1 [encorafenib]
Method in brief: as §1

[2] = compound: COC(=O)[C@H](CCSC)NC(=O)C1=C(C=C(C=C1)NC[C@H](CS)N)C2=CC=CC=C2
Method in brief: as §1

[3] = compound: COC1=CC=C(C=C1)CN2C=CC3=C2C=C(C=C3)C(=O)NO
Method in brief: as §1

filanesib = compound: CON(C)C(=O)N1N=C(c2cc(F)ccc2F)S[C@@]1(CCCN)c1ccccc1 [filanesib]
Method in brief: as §1

zotarolimus = compound: CO[C@H]1C[C@@H]2CC[C@@H](C)[C@@](O)(O2)C(=O)C(=O)N2CCCC[C@H]2C(=O)O[C@H]([C@H](C)C[C@@H]2CC[C@H](n3cnnn3)[C@H](OC)C2)CC(=O)[C@H](C)/C=C(\C)[C@@H](O)[C@@H](OC)C(=O)[C@H](C)C[C@H](C)/C=C/C=C/C=C/1C [zotarolimus]
Method in brief: as §1

idasanutlin = compound: COc1cc(C(=O)O)ccc1NC(=O)[C@@H]1N[C@@H](CC(C)(C)C)[C@](C#N)(c2ccc(Cl)cc2F)[C@H]1c1cccc(Cl)c1F [idasanutlin]
Method in brief: as §1

alisertib = compound: COc1cc(Nc2ncc3c(n2)-c2ccc(Cl)cc2C(c2c(F)cccc2OC)=NC3)ccc1C(=O)O [alisertib]
Method in brief: as §1

[4] = compound: COc1cc2nc(-c3cc(F)ccc3O)nc(N[C@@H]3CNC[C@H]3C(C)(C)O)c2cc1OC
Method in brief: as §1

gefitinib = compound: COc1cc2ncnc(Nc3ccc(F)c(Cl)c3)c2cc1OCCCN1CCOCC1 [gefitinib]
Method in brief: as §1

[5] = compound: COc1cccc2cc(-c3nc([C@H]4CC[C@H](C(=O)O)CC4)n4ncnc(N)c34)[nH]c12
Method in brief: as §1

lapatinib = compound: CS(=O)(=O)CCNCc1ccc(-c2ccc3ncnc(Nc4ccc(OCc5cccc(F)c5)c(Cl)c4)c3c2)o1 [lapatinib]
Method in brief: as §1

pictilisib = compound: CS(=O)(=O)N1CCN(Cc2cc3nc(-c4cccc5[nH]ncc45)nc(N4CCOCC4)c3s2)CC1 [pictilisib]
Method in brief: as §1

[6] = compound: CS(=O)(=O)c1ccc(-c2cnc(N)c(C(=O)Nc3ccccc3)n2)cc1
Method in brief: as §1

crizotinib = compound: C[C@@H](Oc1cc(-c2cnn(C3CCNCC3)c2)cnc1N)c1c(Cl)ccc(F)c1Cl [crizotinib]
Method in brief: as §1

[7] = compound: C[C@@H]1COCCN1C2=NC(=NC(=C2)C3(CC3)S(=O)(=O)C)C4=C5C=CNC5=CC=C4
Method in brief: as §1

[8] = compound: C[C@H](C1=CC=C(C=C1)C(=O)NC2=C3C=CNC3=NC=C2)N
Method in brief: as §1

duvelisib = compound: C[C@H](Nc1ncnc2nc[nH]c12)c1cc2cccc(Cl)c2c(=O)n1-c1ccccc1 [duvelisib]
Method in brief: as §1

gandotinib = compound: Cc1cc(Nc2cc(CN3CCOCC3)c3nc(C)c(Cc4ccc(Cl)cc4F)n3n2)n[nH]1 [gandotinib]
Method in brief: as §1

tozasertib = compound: Cc1cc(Nc2cc(N3CCN(C)CC3)nc(Sc3ccc(NC(=O)C4CC4)cc3)n2)n[nH]1 [tozasertib]
Method in brief: as §1

[9] = compound: Cc1cc(SCc2sc(-c3ccc(C(F)(F)F)cc3)nc2C)ccc1OCC(=O)O
Method in brief: as §1

doramapimod = compound: Cc1ccc(-n2nc(C(C)(C)C)cc2NC(=O)Nc2ccc(OCCN3CCOCC3)c3ccccc23)cc1 [doramapimod]
Method in brief: as §1

ispinesib = compound: Cc1ccc(C(=O)N(CCCN)[C@@H](c2nc3cc(Cl)ccc3c(=O)n2Cc2ccccc2)C(C)C)cc1 [ispinesib]
Method in brief: as §1

bafetinib = compound: Cc1ccc(NC(=O)c2ccc(CN3CC[C@H](N(C)C)C3)c(C(F)(F)F)c2)cc1Nc1nccc(-c2cncnc2)n1 [bafetinib]
Method in brief: as §1

[10] = compound: Cc1cccc(CC(=O)N2CCc3c2ccc(-c2cn(C)c4ncnc(N)c24)c3F)n1
Method in brief: as §1

nilotinib = compound: Cc1cn(-c2cc(NC(=O)c3ccc(C)c(Nc4nccc(-c5cccnc5)n4)c3)cc(C(F)(F)F)c2)cn1 [nilotinib]
Method in brief: as §1

[11] = compound: Cc1nc(Nc2n[nH]c3c2CN(C(=O)N[C@H](CN(C)C)c2ccccc2)C3(C)C)c2sccc2n1
Method in brief: as §1

dasatinib = compound: Cc1nc(Nc2ncc(C(=O)Nc3c(C)cccc3Cl)s2)cc(N2CCN(CCO)CC2)n1 [dasatinib]
Method in brief: as §1

[12] = compound: Cc1ncc(-c2ccnc(Nc3ccc(S(C)(=O)=O)cc3)n2)n1C(C)C
Method in brief: as §1

[13] = compound: Cc1sc2c(c1C)C(c1ccc(Cl)cc1)=N[C@@H](CC(=O)OC(C)(C)C)c1nnc(C)n1-2
Method in brief: as §1

[14] = compound: Cn1cc(-c2ccc3c(c2)CCN3C(=O)Cc2cccc(C(F)(F)F)c2)c2c(N)ncnc21
Method in brief: as §1

[15] = compound: Cn1cc(-c2ccc3nnc(C(F)(F)c4ccc5ncccc5c4)n3n2)cn1
Method in brief: as §1

tipifarnib = compound: Cn1cncc1[C@@](N)(c1ccc(Cl)cc1)c1ccc2c(c1)c(-c1cccc(Cl)c1)cc(=O)n2C [tipifarnib]
Method in brief: as §1

mubritinib = compound: FC(F)(F)c1ccc(/C=C/c2nc(COc3ccc(CCCCn4ccnn4)cc3)co2)cc1 [mubritinib]
Method in brief: as §1

[16] = compound: NC(=O)Nc1cc(-c2cccc(F)c2)sc1C(=O)N[C@H]1CCCNC1
Method in brief: as §1

[17] = compound: NC(=O)c1cnc(N[C@@H]2CCCC[C@@H]2N)nc1Nc1cccc(-n2nccn2)c1
Method in brief: as §1

[18] = compound: NC1(c2ccc(-c3nc4ccn5c(=O)[nH]nc5c4cc3-c3ccccc3)cc2)CCC1
Method in brief: as §1

[19] = compound: NCC(=O)Nc1ccc(-n2nc(C(F)(F)F)cc2-c2ccc3c(ccc4ccccc43)c2)cc1
Method in brief: as §1

entinostat = compound: Nc1ccccc1NC(=O)c1ccc(CNC(=O)OCc2cccnc2)cc1 [entinostat]
Method in brief: as §1

vorinostat = compound: O=C(CCCCCCC(=O)Nc1ccccc1)NO [vorinostat]
Method in brief: as §1

citarinostat = compound: O=C(CCCCCCNC(=O)c1cnc(N(c2ccccc2)c2ccccc2Cl)nc1)NO [citarinostat]
Method in brief: as §1

silmitasertib = compound: O=C(O)c1ccc2c(c1)nc(Nc1cccc(Cl)c1)c1ccncc12 [silmitasertib]
Method in brief: as §1

[20] = compound: O=C1NC(=O)C(c2cnc3ccccn23)=C1c1cn2c3c(cc(F)cc13)CN(C(=O)N1CCCCC1)CC2
Method in brief: as §1

[21] = compound: c1cc(OCCN2CCCCC2)cc(-c2n[nH]c3ccc(-c4nnc[nH]4)cc23)c1
Method in brief: as §1

[22] = compound: c1ccc([C@@H]2C[C@H]2NC2CCNCC2)cc1
Method in brief: as §1

entospletinib = compound: c1cn2cc(-c3ccc4cn[nH]c4c3)nc(Nc3ccc(N4CCOCC4)cc3)c2n1 [entospletinib]
Method in brief: as §1

Measured: log2 fold change

SARS (UniProt P49591)
inactive: defactinib -0.044 | rucaparib -0.063 | [1] 0.001 | encorafenib -0.015 | [2] -0.006 | [3] 0.03 | filanesib -0.074 | zotarolimus -0.004 | idasanutlin -0.002 | alisertib -0.043 | [4] -0.03 | gefitinib -0.013 | [5] 0.034 | lapatinib -0.015 | pictilisib 0.025 | [6] 0.017 | crizotinib 0.022 | [7] 0.039 | [8] -0.041 | duvelisib 0.012 | gandotinib -0.009 | tozasertib -0.007 | [9] -0.013 | doramapimod -0.034 | ispinesib 0.059 | bafetinib -0.008 | [10] -0.026 | nilotinib -0.007 | [11] 0.027 | dasatinib -0.02 | [12] 0.015 | [13] 0 | [14] 0.033 | [15] -0.013 | tipifarnib -0.02 | mubritinib 0.014 | [16] -0.019 | [17] 0.011 | [18] -0.002 | [19] -0.004 | entinostat 0 | vorinostat -0.004 | citarinostat 0.014 | silmitasertib -0.033 | [20] -0.008 | [21] -0.032 | [22] -0.004 | entospletinib -0.027
